Reference: patent US9968570B2, “Compositions and methods for treating cancer” (Chemo-Enhanced LLC, priority 2013, dated 2018)
For at least one compound, name, drawing or mass did not settle the structure.

Tested on: L3.6 pancreatic cancer cells
Experiment: MTT cell viability assay, C6-Ceramide / chemo agents / pathway inhibitors
Assay type: cell-based, human
Conditions: 48 h; LY 294002 1 μM, rapamycin 100 nM, U0126 1 μg/ml, Taxol 1.5 μg/ml, Gemcitabine 1 μg/ml
Method: L3.6 pancreatic cancer cells, cultured either in basic DMEM medium or with 10% FBS, were treated with indicated doses of Taxol in the presence or absence of C6 Ceramide (10 μg/ml) for 48 hours, cell viability was detected by MTT assay (FIGS. 4A and B). L3.6 cells, cultured either in basic DMEM medium or with 10% FBS, were treated with indicated dose of C6 Ceramide in the presence or absence of Taxol (1.5 μg/ml) for 48 hours, cell viability was detected by MTT assay as described (FIGS. 4C and D). Mitomycin C (10 μg/ml) was always present in the media to prevent cell proliferation from occurring. […]
FIG. 9 depicts data showing the effect of survival pathway inhibitors on cytotoxicity of Taxol and Gemcitabine in L3.6 pancreatic tumor cells. L3.6 cells were pretreated with various inhibitors including PI3K/AKT inhibitor LY 294002 (LY, 1 μM), mTORC1 inhibitor rapamycin (100 nM), MEK/ERK inhibitor U0126 (1 μg/ml), alone or in the presence of Taxol (1.5 μg/ml) or Gemcitabine (1 μg/ml) for 48 hours, with cell death detected 48 hours later (FIG. 9, left). […]
Cell viability was measured by the 3-(4,5-dimethylthiazol-2-yl)-2,5-diphenyltetrazolium bromide (MTT) method, as described previously (Cao, C., et al. Sci Signal, 2: ra17, 2009; and Vanhaesebroeck, B., et al. Annu Rev Biochem, 70: 535-602, 2001). […]

## O=c1cc(N2CCOCC2)oc2c(-c3ccccc3)cccc12 [LY294002]
  L3.6 cell viability, agent alone: little or no significant effect

## CO[C@H]1C[C@@H]2CC[C@@H](C)[C@@](O)(O2)C(=O)C(=O)N2CCCC[C@H]2C(=O)O[C@H]([C@H](C)C[C@@H]2CC[C@@H](O)[C@H](OC)C2)CC(=O)[C@H](C)/C=C(\C)[C@@H](O)[C@@H](OC)C(=O)[C@H](C)C[C@H](C)/C=C/C=C/C=C/1C [rapamycin]
  L3.6 cell viability, agent alone: little or no significant effect
